This note sets out measurements from article PMC12436307.

This test concerns the target T1, LONESOME HIGHWAY (LHW) (Arabidopsis thaliana) (UniProt Q9XIN0).
T1 sequence: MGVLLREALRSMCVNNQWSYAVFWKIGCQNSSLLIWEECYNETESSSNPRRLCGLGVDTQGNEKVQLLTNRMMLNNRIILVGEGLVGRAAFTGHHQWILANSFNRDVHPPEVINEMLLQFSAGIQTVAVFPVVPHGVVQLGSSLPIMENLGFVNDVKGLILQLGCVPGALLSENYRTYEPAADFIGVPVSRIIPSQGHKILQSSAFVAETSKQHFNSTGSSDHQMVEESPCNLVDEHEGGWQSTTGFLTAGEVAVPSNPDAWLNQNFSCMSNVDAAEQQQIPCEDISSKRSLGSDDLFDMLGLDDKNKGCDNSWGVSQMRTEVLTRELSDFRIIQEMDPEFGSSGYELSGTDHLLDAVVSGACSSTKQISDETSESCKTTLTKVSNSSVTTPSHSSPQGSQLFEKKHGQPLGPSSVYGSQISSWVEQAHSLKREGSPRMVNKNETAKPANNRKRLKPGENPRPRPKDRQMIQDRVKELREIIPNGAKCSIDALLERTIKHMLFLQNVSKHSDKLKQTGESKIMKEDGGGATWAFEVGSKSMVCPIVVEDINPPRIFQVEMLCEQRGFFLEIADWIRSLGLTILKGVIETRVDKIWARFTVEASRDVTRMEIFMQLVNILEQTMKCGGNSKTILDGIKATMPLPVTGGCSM
The test is described as follows: two-hybrid; Matchmaker Gold Yeast Two-Hybrid System; pGADT7 and pGBKT7 fusions; growth on SD -Leu -Trp -His -Ade with 3 mM 3AT, 30°C for 3 days.

These are yes or no findings as the source states them, for the method shown. Some entries that bind do so weakly or less than the wild type.

B1: SAC51 (protein, UniProt Q9FMF4 1-348)
chain: MPLDKRQRDLPLGLSPQACFKDIVGRSVLPRIPLPELGKLYAAKLQARCLQPPPFQSLLCSHDKESYGKRFSRSDMRSWCAAATTTTTPLGALESSQKRLLIFDQSGDQTRLLQCPFPLRFPSHAAAEPVKLSELQGIEKAFKEDGEEFHKSDGTESEMHEDTEEINALLYSDDDYDDDCESDDEVMSTGHSPYPNEGVCNKRELEEIDGPCKRQKLLDKVNNISDLSSLVGTESSTQLNGSSFLKDKKLPESKTISTKEDTGSGLSNEQSKKDKIRTALKILESVVPGAKGNEALLLLDEAIDYLKLLKRDLISTEVKNQSSTTHKSPILLLKETTWGTRNLQTDKA
In the case of B1, the binding entry is listed as “binds”.
